One substance from paper PMC3402386 can be followed below.

Protein sequences, listed by entry. Tags and fused reporters are not part of them. Residues count along the entry.
UniProt P15116, residues 160-906: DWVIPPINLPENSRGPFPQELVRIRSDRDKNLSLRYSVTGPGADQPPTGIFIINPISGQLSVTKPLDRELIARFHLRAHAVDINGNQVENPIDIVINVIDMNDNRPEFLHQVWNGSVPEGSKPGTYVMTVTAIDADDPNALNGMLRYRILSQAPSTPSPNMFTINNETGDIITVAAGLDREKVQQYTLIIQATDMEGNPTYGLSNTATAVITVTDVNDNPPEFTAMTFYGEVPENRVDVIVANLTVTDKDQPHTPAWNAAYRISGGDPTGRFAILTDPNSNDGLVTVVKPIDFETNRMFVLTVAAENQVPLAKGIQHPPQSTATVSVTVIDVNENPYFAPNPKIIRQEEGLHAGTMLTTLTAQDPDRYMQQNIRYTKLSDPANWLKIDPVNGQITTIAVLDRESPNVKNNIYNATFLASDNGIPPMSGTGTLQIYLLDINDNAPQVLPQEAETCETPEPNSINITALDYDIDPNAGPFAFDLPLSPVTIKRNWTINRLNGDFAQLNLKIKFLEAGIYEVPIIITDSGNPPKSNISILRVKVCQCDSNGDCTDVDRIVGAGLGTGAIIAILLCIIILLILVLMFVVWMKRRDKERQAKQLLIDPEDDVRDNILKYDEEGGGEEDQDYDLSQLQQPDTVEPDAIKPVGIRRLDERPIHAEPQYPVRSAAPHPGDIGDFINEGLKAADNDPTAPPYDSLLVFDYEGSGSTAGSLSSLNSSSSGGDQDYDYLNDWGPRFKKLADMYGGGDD
UniProt Q02248: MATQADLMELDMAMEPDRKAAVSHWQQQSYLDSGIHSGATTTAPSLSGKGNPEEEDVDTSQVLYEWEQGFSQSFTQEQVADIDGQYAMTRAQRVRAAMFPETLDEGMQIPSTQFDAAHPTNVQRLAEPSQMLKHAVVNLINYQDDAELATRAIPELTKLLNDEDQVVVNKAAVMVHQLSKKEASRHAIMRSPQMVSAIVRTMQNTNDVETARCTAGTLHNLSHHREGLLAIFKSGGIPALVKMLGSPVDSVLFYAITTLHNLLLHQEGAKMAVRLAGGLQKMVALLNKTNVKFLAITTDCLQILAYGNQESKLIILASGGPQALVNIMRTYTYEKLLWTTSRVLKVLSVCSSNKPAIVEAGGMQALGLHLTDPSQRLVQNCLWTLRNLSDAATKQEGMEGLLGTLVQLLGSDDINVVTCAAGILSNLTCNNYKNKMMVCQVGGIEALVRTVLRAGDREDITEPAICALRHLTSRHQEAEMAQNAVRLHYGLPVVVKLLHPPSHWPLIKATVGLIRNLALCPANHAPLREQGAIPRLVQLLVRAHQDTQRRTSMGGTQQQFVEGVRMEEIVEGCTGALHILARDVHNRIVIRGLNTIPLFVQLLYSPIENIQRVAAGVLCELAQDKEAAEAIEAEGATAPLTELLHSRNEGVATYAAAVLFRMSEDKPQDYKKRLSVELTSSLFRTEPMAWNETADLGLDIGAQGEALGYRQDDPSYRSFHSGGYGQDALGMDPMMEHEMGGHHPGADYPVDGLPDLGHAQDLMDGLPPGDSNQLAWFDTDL

These are yes or no findings as the source states them, for the method shown. In cells and extracts the contact can be indirect. Some entries that bind do so weakly or less than the wild type.

The target in the experiment is N-cadherin (mouse (endogenous in hippocampus)) (UniProt P15116). Kind of experiment: co-IP; N-cadherin immunoprecipitated with a specific monoclonal antibody from hippocampal homogenates of adult WT and PTP1B KO mice; mild lysis buffer (20 mM Tris.HCl pH 7.4, 150 mM NaCl, 1% NP40, protease and phosphatase inhibitors), overnight at 4°C, protein A agarose; blots probed for ß-catenin or GluR1 and re-probed for N-cadherin; five animals.

With ß-catenin (from UniProt Q02248 1-781), the binding entry is given as “binds”.
